# The other results are listed elsewhere or left out.
# Protein sequences, listed by entry. Tags and fused reporters are not part of them.
# UniProt Q0JBA9, entry or part of it: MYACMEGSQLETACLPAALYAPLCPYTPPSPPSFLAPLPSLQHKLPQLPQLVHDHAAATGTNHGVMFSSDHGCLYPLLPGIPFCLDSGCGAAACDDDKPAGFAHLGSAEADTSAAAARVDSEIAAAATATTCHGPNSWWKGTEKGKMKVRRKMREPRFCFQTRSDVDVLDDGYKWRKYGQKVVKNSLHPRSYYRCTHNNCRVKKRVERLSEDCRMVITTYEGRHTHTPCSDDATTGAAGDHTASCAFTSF
# Molecular target: OsWRKY34 (Oryza sativa, UniProt Q0JBA9 1-250)
# Assay: protein-binding microarray (RPBM); PBS, 2% BSA, 51.3 ng/ul salmon testes DNA, 50 uM zinc acetate, 200 nM TF, 25 C, 1 h; high values mean tight binding
# Settings: protein: recombinant; tags: N-terminal polyhistidine and DsRed monomer fusion (pET32a); label: CyDye5-dUTP incorporated in the synthesized complementary strand; 3' TTTTT single-stranded linker to array surface; dsDNA, one strand shown
# Summary of the method: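 Polyhistidine-tagged DsRed fusions of transcription factors, joined at the N-terminus, were expressed in E. coli BL21-CodonPlus and isolated on Ni–NTA. They were incubated at 200 nM for 1 h at 25 °C on a custom Agilent array, double-stranded and BSA-blocked, in PBS with 2% BSA, salmon testes DNA and 50 µM zinc acetate. The binding signal is per-feature fluorescence intensity (arbitrary units) read on an Axon 4000B scanner after washing.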
row,Sequence,binding signal
1,TTCCCAACTCAACTCTCTCGTTTTTCGCGCGTACGCTTAACGGAGTCACCTAGTGCAG,8260 fluorescence intensity (a.u.)
2,ATTTTTCTTTTGCTAAAACTTATAAGATTCTTCTATCTACCGGAGTCACCTAGTGCAG,9390 fluorescence intensity (a.u.)
3,ATTTGCGCCCTGACGGATATCTTTCAGTTTGTAACCACCGCGGAGTCACCTAGTGCAG,9580 fluorescence intensity (a.u.)
4,CTATAGCTACCCTAACCTTGGCTCTTTGCTTGCTCCAATTCGGAGTCACCTAGTGCAG,8780 fluorescence intensity (a.u.)
5,CCCACTGCCCACGCCAAATTCACCTCTCCAAACTGCAAACCGGAGTCACCTAGTGCAG,8980 fluorescence intensity (a.u.)
6,AAAAAAAAGGTCACCGGTTCTATGGTTTGTATCGGCTTTCCGGAGTCACCTAGTGCAG,9500 fluorescence intensity (a.u.)
7,TTTTTGTTGCTTTCCGAAAGAGAGATAATTTGACCGGTCACGGAGTCACCTAGTGCAG,8040 fluorescence intensity (a.u.)
8,GATTTACTTTTTTAAAATTTTAATCTTGTGTTGGTTTAGCCGGAGTCACCTAGTGCAG,13100 fluorescence intensity (a.u.)
9,AAAGCCTCGCCGCCATCTCTCTCCACCACCCAAAATTTCTCGGAGTCACCTAGTGCAG,8590 fluorescence intensity (a.u.)
10,CTCTTTGGCTGGTGCAAGTGTCATGCATTTTATTCACTAGCGGAGTCACCTAGTGCAG,8530 fluorescence intensity (a.u.)
11,ATCATATGAACACGTTATCTTTTTATTTTATACCGGTTCACGGAGTCACCTAGTGCAG,8840 fluorescence intensity (a.u.)
12,TTGAGTTCCCTTCACTTGACTTCCCTAGGTTATGTTCTTTCGGAGTCACCTAGTGCAG,8240 fluorescence intensity (a.u.)
13,GTGTAGTATTCCTTCCGTTGTAGTACTATGTTTGTTTTTTCGGAGTCACCTAGTGCAG,14000 fluorescence intensity (a.u.)
14,CATTTCCTTTTTTTGTTACTTTTTATACAAGTTTTATTTTCGGAGTCACCTAGTGCAG,8870 fluorescence intensity (a.u.)
15,GTATCGTCCTGTTGAACCGGAAACTCATCCACCGTGGACTCGGAGTCACCTAGTGCAG,9400 fluorescence intensity (a.u.)
16,GTGGTCTTCATTGTACATATCAAGATTTCTTGTTTTTGCTCGGAGTCACCTAGTGCAG,11100 fluorescence intensity (a.u.)
17,TCGATCCTTATTTGTGCTGTCGTGAGAGGAGAGGGGAGGGCGGAGTCACCTAGTGCAG,10400 fluorescence intensity (a.u.)
18,TACGGCTTTCTCTGCCTTAACTCTTGAGTTGACCGTTGTCCGGAGTCACCTAGTGCAG,10700 fluorescence intensity (a.u.)
19,CTCGGATCTTCACGAACACATTCACATCTTCCGCTAAGTTCGGAGTCACCTAGTGCAG,9940 fluorescence intensity (a.u.)
20,ACCTGTGCTTGATGGGATGGAAGCTTGGATTAGGTTGGTTCGGAGTCACCTAGTGCAG,8560 fluorescence intensity (a.u.)
21,TCTAATGTTTTCTCAGCCAGTTTTTTCCTGTTACACGTTTCGGAGTCACCTAGTGCAG,12700 fluorescence intensity (a.u.)
22,AGATATTTCCCATCTCTCTCTTGTACAAATATATTTTGCCCGGAGTCACCTAGTGCAG,9330 fluorescence intensity (a.u.)
23,GACAGGCGCACGCCCTCGTCGACGCCCAACCTCCCCAAGTCGGAGTCACCTAGTGCAG,8320 fluorescence intensity (a.u.)

# Reformatted with tabs: entries from further up
row	Sequence	binding signal
3	ATTTGCGCCCTGACGGATATCTTTCAGTTTGTAACCACCGCGGAGTCACCTAGTGCAG	9580 fluorescence intensity (a.u.)
4	CTATAGCTACCCTAACCTTGGCTCTTTGCTTGCTCCAATTCGGAGTCACCTAGTGCAG	8780 fluorescence intensity (a.u.)

# Source: PMC7819943, “Rice protein-binding microarrays: a tool to detect cis-acting elements near promoter regions in rice”
